Assay results from PubChem BioAssay AID977622 (Broad Institute, 2014).
The whole screen tested about 1,900 compounds, of which fewer than 10 were called active. Inconclusive means that the source gave no clear call. Such entries were picked first, then a sample of the others.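 How the source made its calls: active means Green signal of the normal strain falls at least twice as much as red signal of the resistant mutant, with overall culture growth loss under a set limit; inconclusive means no clear call, values can overlap the other calls; inactive means the rest.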

Experiment: wild-type E. coli growth inhibition versus h38 humanized strain – h38 mutant RFP, wild-type GFP, cherry-pick, dose response (AID 977622)
Conditions: E. coli WT ribosome GFP fluorescence, mixed culture, 24 h; at 50 µM (top of the series)
With `CCc1ccc(NC(=O)CCc2c(C)nn(-c3ccc(N4CCCCC4)nn3)c2C)cc1` the activity change, negative = inhibition was inactive: -2.37. For `CC1CCCN(C(=O)C(C)Nc2cc(Cl)ccc2N2CCOCC2)C1` (configuration not stated), the activity change, negative = inhibition was inconclusive: -27.3. For `O=C(Nc1cccc(Cl)c1)N1C[C@@H]2[C@H](c3ccccc31)[C@@H](CO)N2C(=O)c1cccnc1`, the activity change, negative = inhibition was inactive: -2. For `CCOc1ccccc1OCCCC(=O)N1CCN(S(=O)(=O)c2cc(F)ccc2F)CC1`, the activity change, negative = inhibition was inconclusive: -21. For `O=C(NCc1ccccc1Cl)c1ccc2c(c1)SC1=NS(=O)(=O)CCN12`, the activity change, negative = inhibition was inconclusive: -11.1. For `COc1cc(NC(=O)c2ccc([N+](=O)[O-])o2)ccc1NC(=O)c1ccco1`, the activity change, negative = inhibition was inconclusive: -30.6. For `O=C(c1cccc2ccccc12)C1CCCN(C(=O)CCc2cnccn2)C1` (configuration not stated), the activity change, negative = inhibition was inactive: -8.35. In the case of `CN(C)CCNc1ncnc2c1sc1nc(N3CCCC3)c3c(c12)CC(C)(C)OC3`, the activity change, negative = inhibition was inactive: -16.9. In the case of `CCOc1ccc2nc(SCC(=O)Nc3nonc3C)[nH]c2c1`, the activity change, negative = inhibition was inconclusive: -13.3. With `COc1cc2ccccc2cc1C(=O)NCC(c1cccs1)N(C)C` (configuration not stated) the activity change, negative = inhibition was inactive: -9.96. With `O=C(c1ccccc1)C1CN(Cc2ccccc2)CCC1(O)c1ccccc1` (configuration not stated) the activity change, negative = inhibition was inconclusive: 2.48. In the case of `CCOC(=O)Cc1nnc(NC(=O)CSc2nc3ccccc3[nH]2)s1`, the activity change, negative = inhibition was inconclusive: -9.96. With `O=C(Nc1ccc(C(=O)N2CCOCC2)cc1)C1CCCC1` the activity change, negative = inhibition was inconclusive: 18.5. For `Cc1cccc(-c2ccc([C@@H]3[C@@H](CO)N4CCCCN(S(=O)(=O)c5cccs5)C[C@H]34)cc2)c1`, the activity change, negative = inhibition was inconclusive: -65.6. In the case of `CC(CCc1ccccc1)NC(=O)CNC(=O)COc1ccccc1` (configuration not stated), the activity change, negative = inhibition was inactive: -6.26. For `Cc1cccc(-c2ccc([C@@H]3[C@@H](CO)N4CCCCN(S(=O)(=O)c5ccccc5C)C[C@@H]34)cc2)c1`, the activity change, negative = inhibition was inactive: -5.84. In the case of `Cc1ccc(NC(=O)c2ccc(NCCCN3CCC(C)CC3)c([N+](=O)[O-])c2)cc1F`, the activity change, negative = inhibition was inconclusive: -6.67. For `COc1cccc(OCCNS(=O)(=O)c2ccccc2[N+](=O)[O-])c1`, the activity change, negative = inhibition was inconclusive: -12.7. With `Cc1noc(C)c1NC(=O)Nc1ccc2c(c1)C(=O)N([C@@H](C)CO)C[C@@H](C)[C@H](CN(C)C(=O)Nc1ccc3c(c1)OCO3)OCCCC[C@@H](C)O2` the activity change, negative = inhibition was inactive: 2.14. With `CCOC(=O)C(C)(C)n1nnc(-c2ccc([N+](=O)[O-])cc2)n1` the activity change, negative = inhibition was inconclusive: -8.24. With `Cc1cccc(NS(=O)(=O)c2cc3c(cc2C)NC(=O)CO3)c1` the activity change, negative = inhibition was inconclusive: -4.49. In the case of `O=C(COC(=O)C1CC2C=CC1C2)NCCc1ccccc1` (configuration not stated), the activity change, negative = inhibition was inconclusive: -6.24. With `Cc1cc(C(C)(C)C)oc1C(=O)N(CC(=O)NC1CCCC1)c1c(C)cccc1C` the activity change, negative = inhibition was inconclusive: -10.1. For `COc1ccc(-c2csc(NC(=O)c3ccccc3S(C)(=O)=O)n2)cc1`, the activity change, negative = inhibition was inconclusive: -13.4. For `Cc1noc2ncnc(SCc3ccc(C(F)(F)F)cc3)c12`, the activity change, negative = inhibition was inconclusive: -6.12. With `CN(C)CCCn1c(=O)n(Cc2ccco2)c(=O)c2c3c(sc21)CCCCC3` the activity change, negative = inhibition was inconclusive: 1.52. With `Cc1cc(C)c(OCC(=O)OCC(=O)N2CCc3ccccc3C2)c(C)c1` the activity change, negative = inhibition was inactive: -5.29. In the case of `CCn1cc(CCC(=O)NCCc2ccccc2)c2ccccc21`, the activity change, negative = inhibition was inconclusive: -22.6. With `Cc1ccc(C2NC(=O)c3[nH]nc(-c4ccccc4)c32)cc1` (configuration not stated) the activity change, negative = inhibition was inconclusive: -25. With `Cc1cc([N+](=O)[O-])nn1CC(=O)Nc1cc(F)ccc1F` the activity change, negative = inhibition was inconclusive: -10.8. With `CCCn1c(NCc2ccc3c(c2)OCO3)nc2ccccc21` the activity change, negative = inhibition was inconclusive: -18.8. In the case of `CCOC(=O)c1cccc(OC(=O)CCNC(=O)c2ccc(Cl)cc2)c1`, the activity change, negative = inhibition was inactive: -17.4. For `C[C@@H]1NS(=O)(=O)c2c(F)cccc2O[C@@H]1c1ccccc1`, the activity change, negative = inhibition was inconclusive: -19.7. In the case of `Cn1cc(CN2CCCC(C(=O)Nc3cccc(-c4cc5ccccc5[nH]4)c3)C2)cn1` (configuration not stated), the activity change, negative = inhibition was inactive: -0.032. For `Cc1ccc2c(c1C)OC(=O)CC2c1ccccc1` (configuration not stated), the activity change, negative = inhibition was inconclusive: -33.3. In the case of `COC(=O)c1cc2c(c3c4cc(F)ccc4n(S(=O)(=O)c4cccc(C)c4)c13)C(=O)N(Cc1ccco1)C2`, the activity change, negative = inhibition was inactive: -6.32. With `C[C@@H]1CN([C@@H](C)CO)C(=O)CCCn2nncc2CO[C@H]1CN(C)C(=O)Nc1ccc(C(F)(F)F)cc1` the activity change, negative = inhibition was inconclusive: -38.3. In the case of `Cc1ccc(S(=O)(=O)Nc2cccc(-c3ccc(N4CCCCCC4)nn3)c2)cc1`, the activity change, negative = inhibition was inconclusive: -30. For `Cc1ccc(-n2cc(CNCCN3CCOC3=O)c(-c3ccc(F)cc3)n2)cc1`, the activity change, negative = inhibition was inactive: -1.02. For `COc1ccc(OC)c(NC(=O)COC(=O)CCNc2ccccc2OC)c1`, the activity change, negative = inhibition was inactive: -1.66. With `O=C(c1ccccc1)C1Oc2ccccc2C2CC(c3cccs3)=NN12` (configuration not stated) the activity change, negative = inhibition was inactive: 1.97. With `Cn1nc(C(C)(C)C)c([N+](=O)[O-])c1C(=O)Nc1ccc(Br)cc1` the activity change, negative = inhibition was inconclusive: 6.85. With `COc1ccccc1Cc1c(-c2ccc(F)cc2)nc2ccc(Br)cn12` the activity change, negative = inhibition was inactive: -6.93. With `CCOc1ccc(C(C)=O)cc1CN1C(=O)NC2(CCCCCCC2)C1=O` the activity change, negative = inhibition was inactive: -11.7. For `CCC(C)c1ccccc1NC(=O)c1cccc(-n2cnnn2)c1` (configuration not stated), the activity change, negative = inhibition was inactive: -9.68. In the case of `CCCc1nc(SCC(=O)N2CCc3ccccc3C2)c2ccccc2n1`, the activity change, negative = inhibition was inconclusive: -40.8. With `O=C(O)CCN(Cc1ccccc1)S(=O)(=O)c1ccccc1Cl` the activity change, negative = inhibition was inconclusive: -4.21. For `COc1cc2c(c(OC)c1OC)C(c1ccc3c(c1)OCO3)CC(=O)O2` (configuration not stated), the activity change, negative = inhibition was inactive: -6.27. In the case of `CCn1c(-c2cc(-c3ccc(OC(C)C)cc3)nc3ccccc23)n[nH]c1=S`, the activity change, negative = inhibition was inconclusive: -26.2. For `Clc1ccc(-c2cn(-c3ccc(Cl)cc3)c3[n+]2CCCCC3)cc1`, the activity change, negative = inhibition was inconclusive: -37. For `Cc1cccc(-c2ccc([C@@H]3[C@H](CO)N4CCCCN(S(=O)(=O)c5cccc(C)c5)C[C@@H]34)cc2)c1`, the activity change, negative = inhibition was inconclusive: -28.3. With `O=C(Nc1ccc2c(c1)OCO2)c1cccc(S(=O)(=O)N2CCCC2)c1` the activity change, negative = inhibition was inconclusive: -10.3. With `C[C@@H]1CCCCO[C@H](CN(C)C)[C@H](C)CN([C@@H](C)CO)C(=O)c2cc(NC(=O)Nc3cccc4ccccc34)ccc2O1` the activity change, negative = inhibition was inactive: -0.748. With `COc1ccc(CNC(=O)CSCc2c(F)cccc2Cl)cc1` the activity change, negative = inhibition was inconclusive: 0.13. In the case of `CCc1cccc(NC(=O)CCC(=O)N2CCSc3ccccc32)c1`, the activity change, negative = inhibition was inconclusive: -26.3. With `CN(CC(=O)Nc1cccc(F)c1)C(=O)Cn1c(=O)oc2ccccc21` the activity change, negative = inhibition was inactive: 0.237. With `C[C@@H]1CN([C@@H](C)CO)C(=O)c2cc(NC(=O)Nc3cccc4ccccc34)ccc2O[C@@H](C)CCCCO[C@@H]1CN(C)C` the activity change, negative = inhibition was inconclusive: -0.702. In the case of `Cc1c(C(=O)NCCSCc2cccc(C(F)(F)F)c2)cnn1-c1ccc(F)cc1`, the activity change, negative = inhibition was inconclusive: -46. In the case of `O=[N+]([O-])c1ccc(NCCNCCOc2nonc2-c2ccccc2)c([N+](=O)[O-])c1`, the activity change, negative = inhibition was inconclusive: -16.5. For `COc1cc2c(cc1[N+](=O)[O-])-c1ccc([N+](=O)[O-])cc1C2`, the activity change, negative = inhibition was inconclusive: -22.1. In the case of `CSc1nnnn1-c1ccc(Cl)cc1`, the activity change, negative = inhibition was inconclusive: -31.9. In the case of `O=C(Cc1coc2cc(O)ccc12)N1CCN(S(=O)(=O)c2ccc(Br)cc2)CC1`, the activity change, negative = inhibition was inconclusive: -21.4. For `Cc1noc(C)c1COc1cccc(C(=O)N2CCc3ccccc32)c1`, the activity change, negative = inhibition was inconclusive: -11.6. With `Cc1nn(-c2ccccc2)c(C)c1CN(C)C(=O)c1ccc(S(=O)(=O)NCc2ccco2)cc1` the activity change, negative = inhibition was inconclusive: -36. In the case of `O=C(O)c1cc(S(=O)(=O)N2CCN(C(c3ccccc3)c3ccccc3)CC2)ccc1Cl`, the activity change, negative = inhibition was inconclusive: -18.8. With `Brc1ccccc1CN1CCC(Cc2ccccc2)CC1` the activity change, negative = inhibition was inconclusive: -5.47. For `CN(Cc1nnc(-c2ccc(F)cc2)o1)c1ccccc1`, the activity change, negative = inhibition was inconclusive: 1.04. In the case of `O=C(NCCCn1ccnc1)c1sc2cc([N+](=O)[O-])ccc2c1Cl`, the activity change, negative = inhibition was inactive: -6.1. With `COc1cc(OC)cc(C(=O)Nc2ccc(C(=O)Nc3ccccc3OC)cc2)c1` the activity change, negative = inhibition was inconclusive: -9.15. For `Fc1cccc(Cc2c(-c3ccco3)nc3c4ccccc4ccn23)c1`, the activity change, negative = inhibition was inactive: 4.78. For `CCC(C(=O)NCCc1ccc(C)cc1)n1nc(C)c2c(C)n(-c3ccccc3)nc2c1=O` (configuration not stated), the activity change, negative = inhibition was inconclusive: 3.36. With `Cc1ccccc1OCc1nc2ccccc2n1C` the activity change, negative = inhibition was inconclusive: -6.64. For `CCN(CC)CCN(C(=O)c1ccc2c(c1)OCCO2)c1nc2cc(C)cc(C)c2s1`, the activity change, negative = inhibition was inconclusive: -7.31. In the case of `C[C@@H]1CCCCO[C@@H](CN(C)C)[C@H](C)CN([C@H](C)CO)C(=O)c2cc(NC(=O)Nc3cccc4ccccc34)ccc2O1`, the activity change, negative = inhibition was inconclusive: 2.64. With `O=C(CCc1nc2ccccc2s1)OCC(=O)c1ccccc1` the activity change, negative = inhibition was inactive: -1.33. In the case of `C[C@H](CO)N1C[C@H](C)[C@H](CN(C)C(=O)Nc2ccc3c(c2)OCO3)Oc2c(NC(=O)Nc3ccccc3)cccc2C1=O`, the activity change, negative = inhibition was inactive: 10.4. With `CC(C)Cc1nnc(NS(=O)(=O)c2ccccc2)s1` the activity change, negative = inhibition was inconclusive: -29.9. For `OC1CCN(c2c3c(nc4cc(-c5cccc(F)c5)nn24)CCCC3)CC1`, the activity change, negative = inhibition was inactive: -10.3. With `CCN(CC(=O)Nc1ccccc1OC)CC(=O)Nc1c(Cl)ccc(C)c1Cl` the activity change, negative = inhibition was inconclusive: -8.1. In the case of `CCC1(CC)NC(=O)N(CC(=O)N2N=C(c3ccc(Cl)cc3)CC2c2ccco2)C1=O` (configuration not stated), the activity change, negative = inhibition was inactive: 1.36. With `CC1=Nc2cc(C(=O)NCC3CCCO3)ccc2Sc2ccc(Br)cc21` (configuration not stated) the activity change, negative = inhibition was inconclusive: -21.2. In the case of `O=C(Nc1ccc(Cl)cn1)c1cc2c(s1)-c1ccccc1OC2`, the activity change, negative = inhibition was inconclusive: -2.06.
